Values from PubChem BioAssay AID1159578 (Peter MacCallum Cancer Centre, 2015).
Shown is an unselected part of about 18,000 deposited reagents. About 1,030 of all reagents (5.7%) count as active. 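Inactive calls also include pools with fewer than 3300 nuclei, whose migration was not assessed.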 Raw values are not corrected between plates. Entries without a mark were called inactive. No sequences are given here.

Aim: 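Genome-wide hunt for genes controlling movement of lymphatic endothelial cells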 (primary screen)
Cells: human lymphatic endothelial cells
Reagent: siRNA pool against human genes, 40 nM
Timing: 48 h after transfection
Measured: 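Cells stained with dye and imaged after a scratch; covered wound area and nuclei counted, duplicates averaged, migration set against mock wells and turned into a robust z-score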
Scale: migration robust z-score: higher = faster migration into the scratch; migration relative to mock: higher = more scratch area covered than mock; nuclei per well: higher = more cells in the well
Rule for the call: 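Pools averaging fewer than 3300 nuclei are never called; remaining pools count as changed when migration robust z lies outside -2 to 2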
Calls: active = migration changed; inactive = no migration change, or too few cells

gene symbol,migration robust z-score,migration class with cell-count check,migration relative to mock,"nuclei per well, duplicate mean"
TMEM47 (GeneID 83604),1.74,migration z between -2 and 2; enough cells,1.34,6214
CEP290 (GeneID 80184),1.69,migration z between -2 and 2; enough cells,1.32,6856
INTS6 (GeneID 26512),-0.05,migration z between -2 and 2; enough cells,0.8,4042
RAB38 (GeneID 23682),-5.24,under 3300 nuclei; migration not judged,-0.2,2189
ERMP1 (GeneID 79956),0.37,migration z between -2 and 2; enough cells,0.98,6543
ARRDC2 (GeneID 27106),-1.48,migration z between -2 and 2; enough cells,0.5,5234
KCNS3 (GeneID 3790),-0.28,migration z between -2 and 2; enough cells,0.75,5472
TOGARAM2 (GeneID 165186),-0.24,migration z between -2 and 2; enough cells,0.82,5499
SPPL2B (GeneID 56928),0.05,migration z between -2 and 2; enough cells,0.81,5984
SOCS7 (GeneID 30837),0.99,migration z between -2 and 2; enough cells,1,5250
NNMT (GeneID 4837),-1.5,migration z between -2 and 2; enough cells,0.52,5216
BOLA1 (GeneID 51027),-0.88,migration z between -2 and 2; enough cells,0.66,4711
CBFA2T3 (GeneID 863),-2,migration z between -2 and 2; enough cells,0.42,5170
ZSWIM7 (GeneID 125150),-0.16,migration z between -2 and 2; enough cells,0.84,5878
PTPN9 (GeneID 5780),0.39,migration z between -2 and 2; enough cells,0.88,6155
ANKFN1 (GeneID 162282),-0.25,migration z between -2 and 2; enough cells,0.82,5177
MXD1 (GeneID 4084),-1.77,migration z between -2 and 2; enough cells,0.46,5732
PACRG (GeneID 135138),2.2 (active),migration z above 2; enough cells,1.46,5240
UPP1 (GeneID 7378),0.26,migration z between -2 and 2; enough cells,0.86,6457
RFLNA (GeneID 144347),-0.75,migration z between -2 and 2; enough cells,0.69,6205
C16orf86 (GeneID 388284),-1.15,migration z between -2 and 2; enough cells,0.58,6819

Already shown: entries from further up.
gene symbol,migration robust z-score,migration class with cell-count check,migration relative to mock,"nuclei per well, duplicate mean"
ERMP1 (GeneID 79956),0.37,migration z between -2 and 2; enough cells,0.98,6543
ARRDC2 (GeneID 27106),-1.48,migration z between -2 and 2; enough cells,0.5,5234
KCNS3 (GeneID 3790),-0.28,migration z between -2 and 2; enough cells,0.75,5472
TOGARAM2 (GeneID 165186),-0.24,migration z between -2 and 2; enough cells,0.82,5499
SPPL2B (GeneID 56928),0.05,migration z between -2 and 2; enough cells,0.81,5984
SOCS7 (GeneID 30837),0.99,migration z between -2 and 2; enough cells,1,5250
NNMT (GeneID 4837),-1.5,migration z between -2 and 2; enough cells,0.52,5216
BOLA1 (GeneID 51027),-0.88,migration z between -2 and 2; enough cells,0.66,4711
CBFA2T3 (GeneID 863),-2,migration z between -2 and 2; enough cells,0.42,5170

More reagents follow:
gene symbol,migration robust z-score,migration class with cell-count check,migration relative to mock,"nuclei per well, duplicate mean"
TRPV5 (GeneID 56302),-0.86,migration z between -2 and 2; enough cells,0.64,4040
HSF2BP (GeneID 11077),-0.56,migration z between -2 and 2; enough cells,0.74,5976
SPEM2 (GeneID 201243),-0.88,migration z between -2 and 2; enough cells,0.66,5025
CDC42BPG (GeneID 55561),-2.26 (active),migration z below -2; enough cells,0.37,4632
KIF25 (GeneID 3834),-0.83,migration z between -2 and 2; enough cells,0.64,5357
ATP6V1B1 (GeneID 525),-0.65,migration z between -2 and 2; enough cells,0.68,5204
GRK2 (GeneID 156),-1.9,migration z between -2 and 2; enough cells,0.44,3618
PDGFC (GeneID 56034),0.94,migration z between -2 and 2; enough cells,1.13,5606
IFT81 (GeneID 28981),0.46,migration z between -2 and 2; enough cells,1,5946
GNG7 (GeneID 2788),-0.43,migration z between -2 and 2; enough cells,0.77,6096
OR9Q1 (GeneID 219956),0.12,migration z between -2 and 2; enough cells,0.92,5832
TSPAN31 (GeneID 6302),-0.12,migration z between -2 and 2; enough cells,0.85,6501
TRAPPC8 (GeneID 22878),-0.52,migration z between -2 and 2; enough cells,0.75,5258
ATP2B4 (GeneID 493),0.99,migration z between -2 and 2; enough cells,1,6799
ETV4 (GeneID 2118),-0.36,migration z between -2 and 2; enough cells,0.74,4426
CCR1 (GeneID 1230),0.36,migration z between -2 and 2; enough cells,0.88,6346
EEF1AKMT1 (GeneID 221143),0.78,migration z between -2 and 2; enough cells,1.09,6266
SLC22A23 (GeneID 63027),-0.6,migration z between -2 and 2; enough cells,0.73,6782
SSPOP (GeneID 23145),-0.04,migration z between -2 and 2; enough cells,0.88,5529
SMIM11 (GeneID 54065),0.8,migration z between -2 and 2; enough cells,1.09,7234
KLK6 (GeneID 5653),-1.35,migration z between -2 and 2; enough cells,0.54,3963
ST3GAL2 (GeneID 6483),-0.39,migration z between -2 and 2; enough cells,0.73,6126
SMAP1 (GeneID 60682),-0.01,migration z between -2 and 2; enough cells,0.88,5221
SSX2 (GeneID 6757),-1.37,migration z between -2 and 2; enough cells,0.52,4315
TMEM270 (GeneID 135886),-1.51,migration z between -2 and 2; enough cells,0.49,4889
RNF26 (GeneID 79102),-1.48,migration z between -2 and 2; enough cells,0.52,5386
TRAPPC2 (GeneID 6399),-0.24,migration z between -2 and 2; enough cells,0.82,7462
DNAH9 (GeneID 1770),-0.62,migration z between -2 and 2; enough cells,0.72,5190
GLIS1 (GeneID 148979),0.02,migration z between -2 and 2; enough cells,0.89,6434
HELQ (GeneID 113510),1.66,migration z between -2 and 2; enough cells,1.12,6510
TPRG1L (GeneID 127262),2.14 (active),migration z above 2; enough cells,1.44,4898
MARCHF1 (GeneID 55016),1.02,migration z between -2 and 2; enough cells,1,6334
NET1 (GeneID 10276),-0.38,migration z between -2 and 2; enough cells,0.78,6210
UPF3B (GeneID 65109),-0.89,migration z between -2 and 2; enough cells,0.66,3706
MICALL1 (GeneID 85377),0.36,migration z between -2 and 2; enough cells,0.98,5502
PAX2 (GeneID 5076),0.5,migration z between -2 and 2; enough cells,0.9,4536
